This passage reports binding results from paper PMC10904058.

Sequences of proteins named here, by UniProt entry; tags and fusion partners are left off.
UniProt P49327: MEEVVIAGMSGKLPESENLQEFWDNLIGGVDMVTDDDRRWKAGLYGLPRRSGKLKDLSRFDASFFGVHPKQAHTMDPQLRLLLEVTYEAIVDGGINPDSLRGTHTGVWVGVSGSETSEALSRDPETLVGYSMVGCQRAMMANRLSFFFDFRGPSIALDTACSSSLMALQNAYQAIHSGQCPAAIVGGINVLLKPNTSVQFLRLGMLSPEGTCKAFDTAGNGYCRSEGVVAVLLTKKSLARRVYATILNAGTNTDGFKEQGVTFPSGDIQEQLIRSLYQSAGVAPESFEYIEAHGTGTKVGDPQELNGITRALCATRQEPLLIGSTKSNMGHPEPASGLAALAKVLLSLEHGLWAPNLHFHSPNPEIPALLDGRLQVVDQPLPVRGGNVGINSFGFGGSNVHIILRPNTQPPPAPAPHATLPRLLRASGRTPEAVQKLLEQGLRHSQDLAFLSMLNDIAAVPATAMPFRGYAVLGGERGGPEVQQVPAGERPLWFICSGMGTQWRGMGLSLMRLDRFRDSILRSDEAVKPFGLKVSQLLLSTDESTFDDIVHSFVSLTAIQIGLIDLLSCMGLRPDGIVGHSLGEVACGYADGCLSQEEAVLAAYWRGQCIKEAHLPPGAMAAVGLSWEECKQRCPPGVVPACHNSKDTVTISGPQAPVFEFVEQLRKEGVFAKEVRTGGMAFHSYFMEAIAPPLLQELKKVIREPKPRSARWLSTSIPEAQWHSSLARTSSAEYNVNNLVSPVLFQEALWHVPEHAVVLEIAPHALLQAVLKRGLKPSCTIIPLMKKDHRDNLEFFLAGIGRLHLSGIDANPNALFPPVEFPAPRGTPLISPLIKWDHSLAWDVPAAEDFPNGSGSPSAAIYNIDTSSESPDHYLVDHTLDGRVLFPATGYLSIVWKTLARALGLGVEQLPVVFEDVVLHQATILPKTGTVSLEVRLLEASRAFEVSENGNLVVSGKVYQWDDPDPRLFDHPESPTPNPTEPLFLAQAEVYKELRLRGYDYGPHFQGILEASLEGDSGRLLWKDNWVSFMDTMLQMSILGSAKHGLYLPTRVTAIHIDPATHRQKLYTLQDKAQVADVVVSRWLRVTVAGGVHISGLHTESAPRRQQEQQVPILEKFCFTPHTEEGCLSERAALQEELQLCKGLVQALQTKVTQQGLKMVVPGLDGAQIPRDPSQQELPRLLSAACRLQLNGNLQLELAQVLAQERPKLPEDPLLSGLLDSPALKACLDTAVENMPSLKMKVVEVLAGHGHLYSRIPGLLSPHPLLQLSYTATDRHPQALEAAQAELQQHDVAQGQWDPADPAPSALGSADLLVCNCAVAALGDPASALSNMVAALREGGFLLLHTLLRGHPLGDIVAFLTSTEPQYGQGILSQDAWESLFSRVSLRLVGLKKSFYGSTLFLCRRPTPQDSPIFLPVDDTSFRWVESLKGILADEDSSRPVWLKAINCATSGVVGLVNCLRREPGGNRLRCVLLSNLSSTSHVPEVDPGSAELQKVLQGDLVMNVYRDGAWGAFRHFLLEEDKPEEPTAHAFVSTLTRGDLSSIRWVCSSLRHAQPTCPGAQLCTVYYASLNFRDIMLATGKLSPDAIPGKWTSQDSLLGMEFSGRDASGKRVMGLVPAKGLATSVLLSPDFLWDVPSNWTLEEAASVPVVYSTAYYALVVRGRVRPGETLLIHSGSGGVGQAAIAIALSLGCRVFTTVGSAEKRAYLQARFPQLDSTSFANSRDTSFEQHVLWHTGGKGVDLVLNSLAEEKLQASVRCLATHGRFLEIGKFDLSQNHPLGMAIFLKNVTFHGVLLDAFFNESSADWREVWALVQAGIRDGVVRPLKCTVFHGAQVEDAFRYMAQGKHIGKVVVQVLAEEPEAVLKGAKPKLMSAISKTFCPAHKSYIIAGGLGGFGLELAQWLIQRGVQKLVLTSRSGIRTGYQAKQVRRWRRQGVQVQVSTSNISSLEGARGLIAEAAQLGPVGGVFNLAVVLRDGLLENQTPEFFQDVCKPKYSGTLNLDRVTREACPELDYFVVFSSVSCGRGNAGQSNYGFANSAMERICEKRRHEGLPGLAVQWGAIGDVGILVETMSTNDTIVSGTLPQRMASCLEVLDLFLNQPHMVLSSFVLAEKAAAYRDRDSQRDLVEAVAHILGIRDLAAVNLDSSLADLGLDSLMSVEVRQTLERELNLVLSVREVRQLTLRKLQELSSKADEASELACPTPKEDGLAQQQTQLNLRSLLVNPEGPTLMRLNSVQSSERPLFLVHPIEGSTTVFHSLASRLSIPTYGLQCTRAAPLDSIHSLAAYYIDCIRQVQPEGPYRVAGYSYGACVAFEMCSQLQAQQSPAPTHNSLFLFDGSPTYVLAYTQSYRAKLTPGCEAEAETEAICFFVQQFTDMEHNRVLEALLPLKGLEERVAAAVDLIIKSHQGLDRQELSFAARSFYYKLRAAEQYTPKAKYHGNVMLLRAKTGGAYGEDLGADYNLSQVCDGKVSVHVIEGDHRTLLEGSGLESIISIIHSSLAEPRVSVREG

Test [1] deals with HA-FASN, fatty acid synthase (UniProt P49327). As to the kind of experiment: co-IP; FLAG-TRIM56 and HA-FASN in HEK293T cells, IP (Figure 5A, B); FASstatin treatment increased the interaction (Figure 8M).
The target in another test is FASN of the SPR analysis (UniProt P49327). Briefly: SPR; SPR analysis of the FASN-TRIM56 direct interaction (Figure 5F); both purified.
Test [2] has as its target FASN of the GST-pulldown assay (UniProt P49327). Briefly: pull-down; GST-pulldown assay in HEK293T cells (Figure 5D, E); which partner carried GST is not told.
The target of test [3] is HA-FASN, fatty acid synthase (UniProt P49327). Briefly: co-IP; HA-FASN expressed in HEK293T cells, endogenous TRIM56 (Figure 5C).

These are yes or no findings as the source states them, for the method shown. For some of these results: In cells and extracts the contact can be indirect. Some entries that bind do so weakly or less than the wild type. For some of these results: Tags and fused reporters may be left off the sequences shown.

B1: FLAG-TRIM56 (full-length), tripartite motif 56 (enzyme, UniProt Q9BRZ2 1-755)
chain: MVSHGSSPSLLEALSSDFLACKICLEQLRAPKTLPCLHTYCQDCLAQLADGGRVRCPECRETVPVPPEGVASFKTNFFVNGLLDLVKARACGDLRAGKPACALCPLVGGTSTGGPATARCLDCADDLCQACADGHRCTRQTHTHRVVDLVGYRAGWYDEEARERQAAQCPQHPGEALRFLCQPCSQLLCRECRLDPHLDHPCLPLAEAVRARRPGLEGLLAGVDNNLVELEAARRVEKEALARLREQAARVGTQVEEAAEGVLRALLAQKQEVLGQLRAHVEAAEEAARERLAELEGREQVARAAAAFARRVLSLGREAEILSLEGAIAQRLRQLQGCPWAPGPAPCLLPQLELHPGLLDKNCHLLRLSFEEQQPQKDGGKDGAGTQGGEESQSRREDEPKTERQGGVQPQAGDGAQTPKEEKAQTTREEGAQTLEEDRAQTPHEDGGPQPHRGGRPNKKKKFKGRLKSISREPSPALGPNLDGSGLLPRPIFYCSFPTRMPGDKRSPRITGLCPFGPREILVADEQNRALKRFSLNGDYKGTVPVPEGCSPCSVAALQSAVAFSASARLYLINPNGEVQWRRALSLSQASHAVAALPSGDRVAVSVAGHVEVYNMEGSLATRFIPGGKASRGLRALVFLTTSPQGHFVGSDWQQNSVVICDGLGQVVGEYKGPGLHGCQPGSVSVDKKGYIFLTLREVNKVVILDPKGSLLGDFLTAYHGLEKPRVTTMVDGRYLVVSLSNGTIHIFRVRSPDS
Turning to B1, the binding result in test [1] is on record as “binds”.

B2: TRIM56 of the SPR analysis (enzyme, UniProt Q9BRZ2 1-755)
chain: MVSHGSSPSLLEALSSDFLACKICLEQLRAPKTLPCLHTYCQDCLAQLADGGRVRCPECRETVPVPPEGVASFKTNFFVNGLLDLVKARACGDLRAGKPACALCPLVGGTSTGGPATARCLDCADDLCQACADGHRCTRQTHTHRVVDLVGYRAGWYDEEARERQAAQCPQHPGEALRFLCQPCSQLLCRECRLDPHLDHPCLPLAEAVRARRPGLEGLLAGVDNNLVELEAARRVEKEALARLREQAARVGTQVEEAAEGVLRALLAQKQEVLGQLRAHVEAAEEAARERLAELEGREQVARAAAAFARRVLSLGREAEILSLEGAIAQRLRQLQGCPWAPGPAPCLLPQLELHPGLLDKNCHLLRLSFEEQQPQKDGGKDGAGTQGGEESQSRREDEPKTERQGGVQPQAGDGAQTPKEEKAQTTREEGAQTLEEDRAQTPHEDGGPQPHRGGRPNKKKKFKGRLKSISREPSPALGPNLDGSGLLPRPIFYCSFPTRMPGDKRSPRITGLCPFGPREILVADEQNRALKRFSLNGDYKGTVPVPEGCSPCSVAALQSAVAFSASARLYLINPNGEVQWRRALSLSQASHAVAALPSGDRVAVSVAGHVEVYNMEGSLATRFIPGGKASRGLRALVFLTTSPQGHFVGSDWQQNSVVICDGLGQVVGEYKGPGLHGCQPGSVSVDKKGYIFLTLREVNKVVILDPKGSLLGDFLTAYHGLEKPRVTTMVDGRYLVVSLSNGTIHIFRVRSPDS
On to B2, for which, in the test with FASN of the SPR analysis, the binding result is “binds”.

B3: TRIM56 of the GST-pulldown assay (enzyme, UniProt Q9BRZ2 1-755)
chain: MVSHGSSPSLLEALSSDFLACKICLEQLRAPKTLPCLHTYCQDCLAQLADGGRVRCPECRETVPVPPEGVASFKTNFFVNGLLDLVKARACGDLRAGKPACALCPLVGGTSTGGPATARCLDCADDLCQACADGHRCTRQTHTHRVVDLVGYRAGWYDEEARERQAAQCPQHPGEALRFLCQPCSQLLCRECRLDPHLDHPCLPLAEAVRARRPGLEGLLAGVDNNLVELEAARRVEKEALARLREQAARVGTQVEEAAEGVLRALLAQKQEVLGQLRAHVEAAEEAARERLAELEGREQVARAAAAFARRVLSLGREAEILSLEGAIAQRLRQLQGCPWAPGPAPCLLPQLELHPGLLDKNCHLLRLSFEEQQPQKDGGKDGAGTQGGEESQSRREDEPKTERQGGVQPQAGDGAQTPKEEKAQTTREEGAQTLEEDRAQTPHEDGGPQPHRGGRPNKKKKFKGRLKSISREPSPALGPNLDGSGLLPRPIFYCSFPTRMPGDKRSPRITGLCPFGPREILVADEQNRALKRFSLNGDYKGTVPVPEGCSPCSVAALQSAVAFSASARLYLINPNGEVQWRRALSLSQASHAVAALPSGDRVAVSVAGHVEVYNMEGSLATRFIPGGKASRGLRALVFLTTSPQGHFVGSDWQQNSVVICDGLGQVVGEYKGPGLHGCQPGSVSVDKKGYIFLTLREVNKVVILDPKGSLLGDFLTAYHGLEKPRVTTMVDGRYLVVSLSNGTIHIFRVRSPDS
Turning to B3, the binding result in test [2] is “binds”.

B4: endogenous TRIM56 (enzyme, UniProt Q9BRZ2 1-755)
chain: MVSHGSSPSLLEALSSDFLACKICLEQLRAPKTLPCLHTYCQDCLAQLADGGRVRCPECRETVPVPPEGVASFKTNFFVNGLLDLVKARACGDLRAGKPACALCPLVGGTSTGGPATARCLDCADDLCQACADGHRCTRQTHTHRVVDLVGYRAGWYDEEARERQAAQCPQHPGEALRFLCQPCSQLLCRECRLDPHLDHPCLPLAEAVRARRPGLEGLLAGVDNNLVELEAARRVEKEALARLREQAARVGTQVEEAAEGVLRALLAQKQEVLGQLRAHVEAAEEAARERLAELEGREQVARAAAAFARRVLSLGREAEILSLEGAIAQRLRQLQGCPWAPGPAPCLLPQLELHPGLLDKNCHLLRLSFEEQQPQKDGGKDGAGTQGGEESQSRREDEPKTERQGGVQPQAGDGAQTPKEEKAQTTREEGAQTLEEDRAQTPHEDGGPQPHRGGRPNKKKKFKGRLKSISREPSPALGPNLDGSGLLPRPIFYCSFPTRMPGDKRSPRITGLCPFGPREILVADEQNRALKRFSLNGDYKGTVPVPEGCSPCSVAALQSAVAFSASARLYLINPNGEVQWRRALSLSQASHAVAALPSGDRVAVSVAGHVEVYNMEGSLATRFIPGGKASRGLRALVFLTTSPQGHFVGSDWQQNSVVICDGLGQVVGEYKGPGLHGCQPGSVSVDKKGYIFLTLREVNKVVILDPKGSLLGDFLTAYHGLEKPRVTTMVDGRYLVVSLSNGTIHIFRVRSPDS
B4: the binding result in test [3] was “binds”.
